Results: the supplement of paper PMC10849652
The list shows a part of the results.

Amino acid sequences for entries named in this document (tags omitted). A change or cut given only in a name is not applied to a line headed by its entry.
UniProt Q66K89: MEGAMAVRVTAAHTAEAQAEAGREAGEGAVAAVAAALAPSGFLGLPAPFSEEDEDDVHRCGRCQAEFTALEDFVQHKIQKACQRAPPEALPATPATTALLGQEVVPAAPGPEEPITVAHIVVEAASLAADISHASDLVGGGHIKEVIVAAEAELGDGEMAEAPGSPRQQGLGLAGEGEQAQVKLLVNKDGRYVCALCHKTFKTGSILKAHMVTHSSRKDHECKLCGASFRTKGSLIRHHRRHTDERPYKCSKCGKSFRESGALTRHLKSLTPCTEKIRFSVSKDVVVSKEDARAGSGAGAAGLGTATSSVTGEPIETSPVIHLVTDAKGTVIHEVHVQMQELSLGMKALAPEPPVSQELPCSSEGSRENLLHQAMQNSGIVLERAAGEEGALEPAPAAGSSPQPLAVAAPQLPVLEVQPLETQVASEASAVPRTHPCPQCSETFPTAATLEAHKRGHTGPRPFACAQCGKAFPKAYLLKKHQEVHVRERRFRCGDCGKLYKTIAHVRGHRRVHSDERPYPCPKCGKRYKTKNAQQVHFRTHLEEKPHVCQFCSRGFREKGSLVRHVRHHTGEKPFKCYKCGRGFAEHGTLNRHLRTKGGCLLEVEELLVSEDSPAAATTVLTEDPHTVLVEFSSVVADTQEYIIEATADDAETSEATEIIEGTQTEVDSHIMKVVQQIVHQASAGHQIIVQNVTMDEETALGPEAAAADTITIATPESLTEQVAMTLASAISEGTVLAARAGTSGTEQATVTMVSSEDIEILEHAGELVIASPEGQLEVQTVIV
UniProt P51452: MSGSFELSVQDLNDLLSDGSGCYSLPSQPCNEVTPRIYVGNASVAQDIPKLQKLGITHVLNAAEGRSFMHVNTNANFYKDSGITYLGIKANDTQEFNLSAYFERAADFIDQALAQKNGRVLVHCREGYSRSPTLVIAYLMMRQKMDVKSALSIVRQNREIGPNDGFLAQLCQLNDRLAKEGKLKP
UniProt P24534: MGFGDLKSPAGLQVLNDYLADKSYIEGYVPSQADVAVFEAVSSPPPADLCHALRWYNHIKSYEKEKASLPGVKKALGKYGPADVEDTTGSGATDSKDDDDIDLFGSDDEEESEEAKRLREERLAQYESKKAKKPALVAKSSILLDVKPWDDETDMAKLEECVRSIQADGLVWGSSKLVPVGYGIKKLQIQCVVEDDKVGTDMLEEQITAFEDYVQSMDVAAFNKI
UniProt P33316: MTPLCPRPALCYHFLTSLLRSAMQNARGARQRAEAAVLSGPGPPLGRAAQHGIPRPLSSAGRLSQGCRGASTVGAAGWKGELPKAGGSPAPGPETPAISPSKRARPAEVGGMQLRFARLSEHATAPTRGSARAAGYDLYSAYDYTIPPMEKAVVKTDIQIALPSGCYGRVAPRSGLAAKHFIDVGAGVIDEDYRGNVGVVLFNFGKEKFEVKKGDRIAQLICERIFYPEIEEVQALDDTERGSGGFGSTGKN
UniProt Q7Z2Z2: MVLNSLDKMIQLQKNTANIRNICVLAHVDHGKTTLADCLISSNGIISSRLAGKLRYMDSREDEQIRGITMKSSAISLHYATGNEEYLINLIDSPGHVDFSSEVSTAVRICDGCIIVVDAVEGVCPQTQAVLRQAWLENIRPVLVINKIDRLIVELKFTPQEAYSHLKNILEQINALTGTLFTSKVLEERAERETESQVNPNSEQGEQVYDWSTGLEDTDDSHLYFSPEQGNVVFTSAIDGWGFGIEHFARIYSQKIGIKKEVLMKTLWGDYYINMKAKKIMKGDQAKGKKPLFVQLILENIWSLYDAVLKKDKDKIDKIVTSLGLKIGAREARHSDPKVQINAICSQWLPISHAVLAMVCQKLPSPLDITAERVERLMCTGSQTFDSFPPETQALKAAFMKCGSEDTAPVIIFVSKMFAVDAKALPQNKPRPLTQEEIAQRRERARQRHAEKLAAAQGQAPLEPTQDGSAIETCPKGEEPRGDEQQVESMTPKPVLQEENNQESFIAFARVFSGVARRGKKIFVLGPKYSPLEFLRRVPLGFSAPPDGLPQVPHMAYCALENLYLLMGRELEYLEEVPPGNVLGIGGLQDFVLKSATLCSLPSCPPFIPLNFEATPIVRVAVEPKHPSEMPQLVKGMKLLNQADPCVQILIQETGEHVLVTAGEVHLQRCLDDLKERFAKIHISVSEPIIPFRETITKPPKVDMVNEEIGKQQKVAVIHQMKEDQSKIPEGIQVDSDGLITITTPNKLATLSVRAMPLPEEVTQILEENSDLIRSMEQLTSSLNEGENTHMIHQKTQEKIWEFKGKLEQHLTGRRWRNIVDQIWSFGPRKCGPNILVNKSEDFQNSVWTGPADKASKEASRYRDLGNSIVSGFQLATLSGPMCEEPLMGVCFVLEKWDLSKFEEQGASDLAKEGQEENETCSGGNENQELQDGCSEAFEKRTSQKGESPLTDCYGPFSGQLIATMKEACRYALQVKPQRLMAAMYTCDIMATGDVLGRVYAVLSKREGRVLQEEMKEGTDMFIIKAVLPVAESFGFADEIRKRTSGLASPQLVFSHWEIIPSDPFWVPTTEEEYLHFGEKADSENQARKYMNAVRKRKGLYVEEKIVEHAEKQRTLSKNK
UniProt Q5JPH6: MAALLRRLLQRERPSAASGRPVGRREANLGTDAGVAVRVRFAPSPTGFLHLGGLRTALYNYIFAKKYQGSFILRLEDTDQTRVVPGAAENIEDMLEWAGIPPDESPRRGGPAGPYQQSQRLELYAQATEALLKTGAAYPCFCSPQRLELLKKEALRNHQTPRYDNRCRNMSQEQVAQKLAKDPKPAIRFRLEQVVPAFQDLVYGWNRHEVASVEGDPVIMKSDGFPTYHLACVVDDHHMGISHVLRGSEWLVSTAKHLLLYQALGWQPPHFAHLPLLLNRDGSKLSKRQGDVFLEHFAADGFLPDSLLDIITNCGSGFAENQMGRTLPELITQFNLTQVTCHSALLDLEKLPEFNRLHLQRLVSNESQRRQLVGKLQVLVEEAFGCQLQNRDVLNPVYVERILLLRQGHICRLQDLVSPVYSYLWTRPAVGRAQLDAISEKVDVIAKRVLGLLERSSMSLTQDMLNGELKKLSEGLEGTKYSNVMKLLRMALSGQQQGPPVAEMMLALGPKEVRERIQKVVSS
UniProt Q13409, whole entry, looked up: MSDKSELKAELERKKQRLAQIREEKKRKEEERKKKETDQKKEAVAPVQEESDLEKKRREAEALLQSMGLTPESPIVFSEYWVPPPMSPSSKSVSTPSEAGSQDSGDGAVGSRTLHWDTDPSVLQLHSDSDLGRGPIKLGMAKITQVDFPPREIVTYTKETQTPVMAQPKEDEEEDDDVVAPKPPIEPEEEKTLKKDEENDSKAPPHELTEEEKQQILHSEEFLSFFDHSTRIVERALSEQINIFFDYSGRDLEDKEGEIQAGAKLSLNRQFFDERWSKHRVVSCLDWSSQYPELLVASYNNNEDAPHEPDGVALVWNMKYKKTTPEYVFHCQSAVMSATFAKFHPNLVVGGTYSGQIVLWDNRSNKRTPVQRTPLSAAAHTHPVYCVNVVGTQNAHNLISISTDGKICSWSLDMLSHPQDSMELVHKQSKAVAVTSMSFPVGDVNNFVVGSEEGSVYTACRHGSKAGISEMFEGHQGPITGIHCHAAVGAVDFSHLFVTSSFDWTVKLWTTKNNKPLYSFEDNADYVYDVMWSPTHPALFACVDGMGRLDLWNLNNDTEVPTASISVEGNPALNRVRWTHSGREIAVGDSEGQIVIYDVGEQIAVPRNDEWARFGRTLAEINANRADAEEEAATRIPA

Experiments:
Assay in all cases: log2 fold change, soluble protein after heating vs DMSO (PISA); higher = thermal stabilisation; K562 lysate, 10 uM; active = over 0.2 and 3.5 SD of the protein, either way, in both replicates (recomputed)
[1] = compound: C1=CC=C(C=C1)[C@H](COC2=CC3=C(C=C2)NC(=O)N3)NC(=O)C4=CC=CN(C4=O)CC5=CC(=C(C=C5)F)F
Summary of the method: (§1)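 Values give the log-two fold change in thermal stability against solvent controls, from duplicates. Crude K562 extract at 1 mg/mL protein, made by dounce homogenisation in PBS pH 7.4 with 1 mM MgCl2, was treated with 10 μM compound for 30 min. After 3 min heating across 48°C-58°C, aliquots were pooled, adjusted to 0.5% NP-40 at 4°C and centrifuged at 21,000xg for 90 min. The supernatant was measured by TMTpro 16plex LC-MS/MS with channel sums equalised.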

[2] = compound: CC1=C(SC2=C1C(=N[C@H](C3=NN=C(N32)C)CC(=O)N)C4=CC=C(C=C4)Cl)C
Summary of the method: as §1

[3] = compound: CC1=C2C(=CC=C1)N=C(N(C2=O)C3=CC=CC=C3C)CN4C=NC5=C(N=CN=C54)N
Summary of the method: as §1

[4] = compound: Cc1sc2c(c1C)C(c1ccc(Cl)cc1)=N[C@@H](CC(=O)OC(C)(C)C)c1nnc(C)n1-2
Summary of the method: as §1

[5] = compound: c1ccc([C@@H]2C[C@H]2NC2CCNCC2)cc1
Summary of the method: as §1

Measured: log2 fold change

E4F1 (UniProt Q66K89)
inactive: [1] 0.058 | [2] 0.517 | [3] -0.174 | [4] 0.049 | [5] 0.022

DUSP3 (UniProt P51452)
inactive: [1] 0.009 | [2] 0.018 | [3] -0.021 | [4] -0.003 | [5] -0.013

EEF1B2 (UniProt P24534)
inactive: [1] 0.018 | [2] 0.004 | [3] 0.025 | [4] -0.015 | [5] 0.011

DUT (UniProt P33316)
inactive: [1] 0.049 | [2] -0.03 | [3] -0.021 | [4] -0.041 | [5] -0.066

EFL1 (UniProt Q7Z2Z2)
inactive: [1] -0.005 | [2] -0.017 | [3] 0.007 | [4] -0.006 | [5] 0.082

EARS2 (UniProt Q5JPH6)
inactive: [1] -0.013 | [2] -0.019 | [3] 0.037 | [4] -0.006 | [5] 0.044

DYNC1I2 isoform 5 (UniProt Q13409)
inactive: [1] 0.049 | [2] -0.03 | [3] -0.012 | [4] -0.018 | [5] 0.021
